From patent publication US20170189504A1, “NOVEL PEPTIDES AND COMBINATION OF PEPTIDES FOR USE IN IMMUNOTHERAPY AGAINST VARIOUS CANCERS” (immatics biotechnologies GmbH, priority 2015, published 2017)
For part of these data: Expression grades refer to the transcript from which the peptide derives; gene names, where given, were looked up from the sequence.

Legend:
HLA-A*02 = test: Identification and relative LC-MS quantitation of HLA-A*02-presented tumor-associated peptides on tissue samples (presentation profiles, Tables 13A, 13B, 15, FIG. 1); design: species or system human; key to Presentation score NHL / Presentation score CLL / Presentation score BRCA / Presentation score AML / Presentation score GB / Presentation score NSCLC / Presentation score GBC_CCC / Presentation score UEC / Presentation score MEL / Presentation score OSCAR / Presentation score GC / Presentation score UBC / Presentation score OC / Presentation score RCC / Presentation score CRC / Presentation score PCA / Presentation score HCC / Presentation score PC / Presentation score SCLC: specifically presented on tumors (++++); very highly over-presented on tumors compared to a panel of normal tissues (+++); highly over-presented on tumors compared to a panel of normal tissues (++); over-presented on tumors compared to a panel of normal tissues (+); conditions: for Peptide Presentation on cancer entities: HLA-A*02-binding tumor-associated peptides
source genes (mRNA) [1] = test: Gene and exon expression of source genes, TCGA tumor samples compared with normal tissue samples (Lonsdale, 2013) (Table 17); design: species or system human; conditions: same cutoff
source genes (mRNA) [2] = test: Expression profiling of source genes by in-house RNASeq of tumor and normal tissues (Table 18, FIG. 2); design: species or system human; key: very highly over-expressed in tumors compared to a panel of normal tissues (+++); highly over-expressed in tumors compared to a panel of normal tissues (++); over-expressed in tumors compared to a panel of normal tissues (+); conditions: source gene of peptide

Substance: 254: peptide found in PFAS (gene looked up) (KLQGKLPEL; listed as Homo sapiens) [compound 254]
- Presentation score NHL (HLA-A*02; HLA-A*02 peptides, non-Hodgkin lymphoma (N = 18) vs panel of normal tissues (N = 262)): ++++
- Presentation score NSCLC (HLA-A*02; HLA-A*02 peptides, non-small cell lung cancer (N = 90) vs panel of normal tissues (N = 262)): ++++
- Peptide Presentation on cancer entities (HLA-A*02; Table 13A, cancer entities on which the peptide was found presented): NSCLC, NHL
- Peptide Presentation on cancer entities (HLA-A*02; Table 13B, presentation on additional cancer entities): UEC, AML
- Over-expression category of source gene (target coverage), COAD (source genes (mRNA) [1]; COAD = Colon and rectal adenocarcinoma (N = 462)): C (>=5% of tumors above the cutoff, but <20%)
- Over-expression category of source gene (target coverage), DLBC (source genes (mRNA) [1]; DLBC = Lymphoid neoplasm diffuse large B-cell lymphoma (N = 48)): B (>= 20% of tumors above the cutoff, but <50%)
- Over-expression category of source gene (target coverage), ESCA (source genes (mRNA) [1]; ESCA = Esophageal cancer (N = 185)): C (>=5% of tumors above the cutoff, but <20%)
- Over-expression category of source gene (target coverage), GBM (source genes (mRNA) [1]; GBM = Glioblastoma multiforme (N = 169)): C (>=5% of tumors above the cutoff, but <20%)
- Over-expression category of source gene (target coverage), KIRP (source genes (mRNA) [1]; KIRP = Papillary kidney carcinoma (N = 291)): C (>=5% of tumors above the cutoff, but <20%)
- Over-expression category of source gene (target coverage), LAML (source genes (mRNA) [1]; LAML = Acute Myeloid Leukemia (N = 173)): A (>=50% of tumors above the cutoff)
- Over-expression category of source gene (target coverage), LGG (source genes (mRNA) [1]; LGG = Lower grade glioma (N = 534)): C (>=5% of tumors above the cutoff, but <20%)
- Over-expression category of source gene (target coverage), OV (source genes (mRNA) [1]; OV = Ovarian serous cystadenocarcinoma (N = 309)): C (>=5% of tumors above the cutoff, but <20%)
- Over-expression category of source gene (target coverage), READ (source genes (mRNA) [1]; READ = Colon and rectal adenocarcinoma (N = 167)): C (>=5% of tumors above the cutoff, but <20%)
- Over-expression category of source gene (target coverage), SKCM (source genes (mRNA) [1]; SKCM = Skin cutaneous melanoma (N = 473)): B (>= 20% of tumors above the cutoff, but <50%)
- Over-expression category of source gene (target coverage), STAD (source genes (mRNA) [1]; STAD = Stomach adenocarcinoma (N = 415)): C (>=5% of tumors above the cutoff, but <20%)
- Over-expression category of source gene (target coverage), UCEC (source genes (mRNA) [1]; UCEC = Uterine corpus endometrial carcinoma (N = 546)): B (>= 20% of tumors above the cutoff, but <50%)
- Expression score AML (source genes (mRNA) [2]; acute myeloid leukemia (N = 11) vs panel of normal tissues): +
- Expression score GC (source genes (mRNA) [2]; gastric cancer (N = 11) vs panel of normal tissues): +
- Expression score GB (source genes (mRNA) [2]; glioblastoma (N = 24) vs panel of normal tissues): +
- Expression score NHL (source genes (mRNA) [2]; non-Hodgkin lymphoma (N = 10) vs panel of normal tissues): ++
- Expression score NSCLC (source genes (mRNA) [2]; non-small cell lung cancer (N = 11) vs panel of normal tissues): +
- Expression score OC (source genes (mRNA) [2]; ovarian cancer (N = 12) vs panel of normal tissues): +
- Expression score SCLC (source genes (mRNA) [2]; small cell lung cancer (N = 10) vs panel of normal tissues): +
- Expression score UEC (source genes (mRNA) [2]; uterine cancer (N = 10) vs panel of normal tissues): +
